{"source": "PubChem BioAssay AID1224830 (NIAID, 2016)", "aim": "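Genes whose knock-down alters the TNF-alpha reporter response to LPS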 (primary screen)", "cells": "human THP-1 monocytic leukaemia cells, TNF dual-luciferase reporter clone, PMA-differentiated to macrophage-like cells", "knock-down reagent": "siRNA pool against human genes, 50 nM", "timing": "LPS for 4 h, given about 3 days after siRNA transfection", "treatment": "bacterial LPS (TLR4 ligand), 10 ng/ml", "measurement": "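Ratio of firefly to renilla light, scaled to the plate median and expressed as a robust z-score per replicate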", "scale": "TNF reporter robust z-score: higher = stronger TNF reporter response to LPS", "active means": "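a well is active when its z-score exceeds 2.8 or falls below -1.5; control wells carry no call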", "note": "Shown is a random part of about 18,000 reagents tested. In the full data, about 2,900 (16%) are marked active. 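Calls are made per well; low scores hint the gene aids the LPS response, high scores that it dampens it.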 Repeated entries: four replicate wells of each siRNA pool."}
{"gene symbol": "PYCARD (PYD and CARD domain containing)", "TNF reporter robust z-score": 1.22, "call": "inactive"}
{"gene symbol": "PYCARD (PYD and CARD domain containing)", "TNF reporter robust z-score": 1.31, "call": "inactive"}
{"gene symbol": "PYCARD (PYD and CARD domain containing)", "TNF reporter robust z-score": 1.15, "call": "inactive"}
{"gene symbol": "PYCARD (PYD and CARD domain containing)", "TNF reporter robust z-score": 1.48, "call": "inactive"}
{"gene symbol": "ADAM23 (ADAM metallopeptidase domain 23)", "TNF reporter robust z-score": -0.86, "call": "inactive"}
{"gene symbol": "ADAM23 (ADAM metallopeptidase domain 23)", "TNF reporter robust z-score": 2.61, "call": "inactive"}
{"gene symbol": "ADAM23 (ADAM metallopeptidase domain 23)", "TNF reporter robust z-score": 0.88, "call": "inactive"}
{"gene symbol": "ADAM23 (ADAM metallopeptidase domain 23)", "TNF reporter robust z-score": 1.27, "call": "inactive"}
{"gene symbol": "FAM209A (family with sequence similarity 209 member A)", "TNF reporter robust z-score": -1.66, "call": "active"}
{"gene symbol": "FAM209A (family with sequence similarity 209 member A)", "TNF reporter robust z-score": -0.87, "call": "inactive"}
{"gene symbol": "FAM209A (family with sequence similarity 209 member A)", "TNF reporter robust z-score": -0.54, "call": "inactive"}
{"gene symbol": "FAM209A (family with sequence similarity 209 member A)", "TNF reporter robust z-score": -0.48, "call": "inactive"}
{"gene symbol": "CNTLN (centlein)", "TNF reporter robust z-score": -1.61, "call": "active"}
{"gene symbol": "CNTLN (centlein)", "TNF reporter robust z-score": -1.32, "call": "inactive"}
{"gene symbol": "CNTLN (centlein)", "TNF reporter robust z-score": -1.14, "call": "inactive"}
{"gene symbol": "CNTLN (centlein)", "TNF reporter robust z-score": -0.31, "call": "inactive"}
{"gene symbol": "OTOR (otoraplin)", "TNF reporter robust z-score": -1.19, "call": "inactive"}
{"gene symbol": "OTOR (otoraplin)", "TNF reporter robust z-score": -1.08, "call": "inactive"}
{"gene symbol": "OTOR (otoraplin)", "TNF reporter robust z-score": -1.61, "call": "active"}
{"gene symbol": "OTOR (otoraplin)", "TNF reporter robust z-score": -1.69, "call": "active"}

Hits, among the entries above:
{"gene symbol": "FAM209A (family with sequence similarity 209 member A)", "TNF reporter robust z-score": -1.66, "call": "active"}
{"gene symbol": "CNTLN (centlein)", "TNF reporter robust z-score": -1.61, "call": "active"}
{"gene symbol": "OTOR (otoraplin)", "TNF reporter robust z-score": -1.61, "call": "active"}
{"gene symbol": "OTOR (otoraplin)", "TNF reporter robust z-score": -1.69, "call": "active"}

Next reagents:
{"gene symbol": "THAP12 (THAP domain containing 12)", "TNF reporter robust z-score": 0.59, "call": "inactive"}
{"gene symbol": "THAP12 (THAP domain containing 12)", "TNF reporter robust z-score": 0.39, "call": "inactive"}
{"gene symbol": "THAP12 (THAP domain containing 12)", "TNF reporter robust z-score": -0.3, "call": "inactive"}
{"gene symbol": "THAP12 (THAP domain containing 12)", "TNF reporter robust z-score": 0.32, "call": "inactive"}
{"gene symbol": "STON1 (stonin 1)", "TNF reporter robust z-score": -1.15, "call": "inactive"}
{"gene symbol": "STON1 (stonin 1)", "TNF reporter robust z-score": -0.31, "call": "inactive"}
{"gene symbol": "STON1 (stonin 1)", "TNF reporter robust z-score": 1.5, "call": "inactive"}
{"gene symbol": "STON1 (stonin 1)", "TNF reporter robust z-score": 1.27, "call": "inactive"}
{"gene symbol": "IFNA8 (interferon alpha 8)", "TNF reporter robust z-score": -0.72, "call": "inactive"}
{"gene symbol": "IFNA8 (interferon alpha 8)", "TNF reporter robust z-score": -0.08, "call": "inactive"}
{"gene symbol": "IFNA8 (interferon alpha 8)", "TNF reporter robust z-score": -0.71, "call": "inactive"}
{"gene symbol": "IFNA8 (interferon alpha 8)", "TNF reporter robust z-score": -0.23, "call": "inactive"}
